In patent US20230174595A1 (UNIVERSITY OF LOUISVILLE RESEARCH FOUNDATION, published 2023):

Legend:
[1] = biological target: recombinant His-tagged HIV-1 gp120 SF162 (Clade B) (HIV-1 strain SF162, UniProt P19550 32-502)
[2] = biological target: recombinant His-tagged HIV-1 gp120 ZM53M.PB12 (Clade C) (HIV-1 strain ZM53M.PB12)

B1: actinohivin (AH), wild type (other)
chain: ASVTIRNAQTGRLLDSNYNGNVYTLPANGGNYQRWTGPGDGTVRNAQTGRCLDSNYDGAVYTLPCNGGSYQKWLFYSNGYIQNVETGRVLDSNYNGNVYTLPANGGNYQKWYTG
Kd [1]: 29.1 nM | Kd [2]: 35.7 nM
